Patent US11229681
Results are given in words; binding and its absence hold for the method and conditions named. Some results given as binding are weak or reduced against the parent protein; the word gives no strength.

The chains behind the UniProt entries cited, without tags or fusion partners. Where a name states a change or a piece, a line headed by the entry shows the natural chain unless it says otherwise.
UniProt P06756: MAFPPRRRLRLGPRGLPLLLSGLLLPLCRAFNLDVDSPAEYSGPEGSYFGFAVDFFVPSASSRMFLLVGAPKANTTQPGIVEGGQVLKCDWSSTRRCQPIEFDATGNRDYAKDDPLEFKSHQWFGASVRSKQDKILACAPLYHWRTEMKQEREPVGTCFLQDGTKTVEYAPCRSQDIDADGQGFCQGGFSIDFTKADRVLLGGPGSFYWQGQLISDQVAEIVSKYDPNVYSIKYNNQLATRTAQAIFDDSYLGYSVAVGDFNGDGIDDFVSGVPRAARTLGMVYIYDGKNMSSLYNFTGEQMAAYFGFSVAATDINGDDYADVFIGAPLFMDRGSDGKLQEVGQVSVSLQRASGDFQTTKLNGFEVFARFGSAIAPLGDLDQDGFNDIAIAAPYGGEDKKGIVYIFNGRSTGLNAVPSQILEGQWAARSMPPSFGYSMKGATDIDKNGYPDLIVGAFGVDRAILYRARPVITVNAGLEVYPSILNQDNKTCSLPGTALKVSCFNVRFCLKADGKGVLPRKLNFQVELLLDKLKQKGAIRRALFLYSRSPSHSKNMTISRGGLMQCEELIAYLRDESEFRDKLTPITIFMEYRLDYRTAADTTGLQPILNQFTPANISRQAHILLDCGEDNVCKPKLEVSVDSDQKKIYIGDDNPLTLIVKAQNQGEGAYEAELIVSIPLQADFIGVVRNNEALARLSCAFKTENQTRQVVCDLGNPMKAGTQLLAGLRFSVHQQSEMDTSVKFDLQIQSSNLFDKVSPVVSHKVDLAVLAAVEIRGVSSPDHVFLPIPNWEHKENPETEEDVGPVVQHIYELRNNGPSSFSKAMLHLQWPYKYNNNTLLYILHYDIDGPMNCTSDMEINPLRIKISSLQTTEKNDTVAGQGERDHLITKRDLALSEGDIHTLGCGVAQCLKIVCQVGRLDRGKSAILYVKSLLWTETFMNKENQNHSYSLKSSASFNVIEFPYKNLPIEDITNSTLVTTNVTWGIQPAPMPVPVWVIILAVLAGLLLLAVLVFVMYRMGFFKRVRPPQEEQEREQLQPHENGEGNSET
UniProt P09038: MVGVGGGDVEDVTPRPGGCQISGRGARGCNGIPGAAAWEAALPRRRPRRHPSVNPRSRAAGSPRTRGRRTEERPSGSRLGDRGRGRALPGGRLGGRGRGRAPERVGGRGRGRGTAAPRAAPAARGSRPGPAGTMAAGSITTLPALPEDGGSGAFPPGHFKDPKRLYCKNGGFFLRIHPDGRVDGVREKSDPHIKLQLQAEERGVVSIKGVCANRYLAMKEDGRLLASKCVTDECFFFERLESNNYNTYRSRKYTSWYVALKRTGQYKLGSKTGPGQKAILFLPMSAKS

Key:
[1] = biological target: recombinant soluble integrin αvβ3 (UniProt P06756); experiment: SPR, soluble αvβ3 immobilized
[2] = biological target: recombinant soluble integrin αvβ3 (UniProt P06756); experiment: SPR, soluble αvβ3 immobilized on the chip, FGF2 mutant injected
[3] = biological target: recombinant soluble integrin αvβ3 (UniProt P06756); experiment: SPR, soluble αvβ3 immobilized on the chip, FGF2 injected
[4] = biological target: recombinant integrin αvβ3 on K562 cells (αvβ3-K562 cells) (UniProt P06756); experiment: adhesion assay with αvβ3-K562 cells

Substance	binding [1]	binding [2]	binding [3]	binding [4]
K125E FGF2 mutant (from UniProt P09038 143-288) (ligand)	binds	binds	–	–
wild-type human FGF2 (SEQ ID NO:1) (from UniProt P09038 143-288) (ligand)	binds	–	binds	binds
